The other results are listed elsewhere or left out.
Compound: CC1Cc2ccccc2N1C(=O)C1CCCN(C1)C(=O)CCl (mixture of isomers) [TRIM25 ligand 11 (diastereomer mixture)]
Assay: probe-labelled cysteine peptide fold change vs DMSO (competition) (log2 fold change); higher = less target engagement (more negative = stronger competition)
Conditions: THP-1, incubation time: 4 h
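Note: competitive chemoproteomic profiling in live THP-1 cells with an iodoacetamide desthiobiotin (IA-DTB) probe, comparing probe-labelled peptide intensities in compound-treated cells against DMSO-treated controls.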

Chains of the proteins cited; added tags and fusions are not shown. Lines headed by an entry give the natural chain unless they say otherwise; changes in a name come on top.
UniProt Q66K74: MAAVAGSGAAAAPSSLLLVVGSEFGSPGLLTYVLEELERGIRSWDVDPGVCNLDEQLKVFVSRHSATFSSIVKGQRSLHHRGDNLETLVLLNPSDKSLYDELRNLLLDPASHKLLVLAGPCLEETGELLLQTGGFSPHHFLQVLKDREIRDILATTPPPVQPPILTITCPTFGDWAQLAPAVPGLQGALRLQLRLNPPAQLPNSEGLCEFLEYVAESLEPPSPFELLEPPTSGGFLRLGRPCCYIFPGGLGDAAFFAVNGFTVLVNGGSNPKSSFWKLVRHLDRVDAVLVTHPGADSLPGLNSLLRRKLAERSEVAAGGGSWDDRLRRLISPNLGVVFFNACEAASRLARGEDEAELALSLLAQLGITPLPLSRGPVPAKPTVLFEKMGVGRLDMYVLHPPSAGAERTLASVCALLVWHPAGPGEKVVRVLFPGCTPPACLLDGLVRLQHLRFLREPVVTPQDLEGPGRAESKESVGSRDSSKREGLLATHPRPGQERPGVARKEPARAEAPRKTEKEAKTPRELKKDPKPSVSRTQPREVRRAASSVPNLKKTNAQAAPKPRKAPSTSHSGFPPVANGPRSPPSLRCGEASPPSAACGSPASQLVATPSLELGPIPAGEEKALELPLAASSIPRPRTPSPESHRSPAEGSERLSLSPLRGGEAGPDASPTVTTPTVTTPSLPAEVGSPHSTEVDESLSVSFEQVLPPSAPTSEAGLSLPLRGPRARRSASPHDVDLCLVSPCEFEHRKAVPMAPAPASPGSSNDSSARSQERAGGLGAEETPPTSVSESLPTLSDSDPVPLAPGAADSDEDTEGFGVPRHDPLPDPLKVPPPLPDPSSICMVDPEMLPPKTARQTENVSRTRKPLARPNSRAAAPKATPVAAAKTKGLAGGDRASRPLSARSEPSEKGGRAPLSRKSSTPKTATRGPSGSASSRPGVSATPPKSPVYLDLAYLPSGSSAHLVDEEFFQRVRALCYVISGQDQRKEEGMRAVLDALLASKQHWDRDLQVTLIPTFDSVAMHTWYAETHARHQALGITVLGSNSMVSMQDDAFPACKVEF
UniProt O95372: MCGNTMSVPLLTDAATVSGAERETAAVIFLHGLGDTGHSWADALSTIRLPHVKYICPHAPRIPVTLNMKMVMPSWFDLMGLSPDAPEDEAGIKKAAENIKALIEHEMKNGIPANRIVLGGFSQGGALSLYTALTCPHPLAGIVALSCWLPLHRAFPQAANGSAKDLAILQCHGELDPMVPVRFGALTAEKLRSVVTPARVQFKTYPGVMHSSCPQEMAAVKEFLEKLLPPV
UniProt O60449: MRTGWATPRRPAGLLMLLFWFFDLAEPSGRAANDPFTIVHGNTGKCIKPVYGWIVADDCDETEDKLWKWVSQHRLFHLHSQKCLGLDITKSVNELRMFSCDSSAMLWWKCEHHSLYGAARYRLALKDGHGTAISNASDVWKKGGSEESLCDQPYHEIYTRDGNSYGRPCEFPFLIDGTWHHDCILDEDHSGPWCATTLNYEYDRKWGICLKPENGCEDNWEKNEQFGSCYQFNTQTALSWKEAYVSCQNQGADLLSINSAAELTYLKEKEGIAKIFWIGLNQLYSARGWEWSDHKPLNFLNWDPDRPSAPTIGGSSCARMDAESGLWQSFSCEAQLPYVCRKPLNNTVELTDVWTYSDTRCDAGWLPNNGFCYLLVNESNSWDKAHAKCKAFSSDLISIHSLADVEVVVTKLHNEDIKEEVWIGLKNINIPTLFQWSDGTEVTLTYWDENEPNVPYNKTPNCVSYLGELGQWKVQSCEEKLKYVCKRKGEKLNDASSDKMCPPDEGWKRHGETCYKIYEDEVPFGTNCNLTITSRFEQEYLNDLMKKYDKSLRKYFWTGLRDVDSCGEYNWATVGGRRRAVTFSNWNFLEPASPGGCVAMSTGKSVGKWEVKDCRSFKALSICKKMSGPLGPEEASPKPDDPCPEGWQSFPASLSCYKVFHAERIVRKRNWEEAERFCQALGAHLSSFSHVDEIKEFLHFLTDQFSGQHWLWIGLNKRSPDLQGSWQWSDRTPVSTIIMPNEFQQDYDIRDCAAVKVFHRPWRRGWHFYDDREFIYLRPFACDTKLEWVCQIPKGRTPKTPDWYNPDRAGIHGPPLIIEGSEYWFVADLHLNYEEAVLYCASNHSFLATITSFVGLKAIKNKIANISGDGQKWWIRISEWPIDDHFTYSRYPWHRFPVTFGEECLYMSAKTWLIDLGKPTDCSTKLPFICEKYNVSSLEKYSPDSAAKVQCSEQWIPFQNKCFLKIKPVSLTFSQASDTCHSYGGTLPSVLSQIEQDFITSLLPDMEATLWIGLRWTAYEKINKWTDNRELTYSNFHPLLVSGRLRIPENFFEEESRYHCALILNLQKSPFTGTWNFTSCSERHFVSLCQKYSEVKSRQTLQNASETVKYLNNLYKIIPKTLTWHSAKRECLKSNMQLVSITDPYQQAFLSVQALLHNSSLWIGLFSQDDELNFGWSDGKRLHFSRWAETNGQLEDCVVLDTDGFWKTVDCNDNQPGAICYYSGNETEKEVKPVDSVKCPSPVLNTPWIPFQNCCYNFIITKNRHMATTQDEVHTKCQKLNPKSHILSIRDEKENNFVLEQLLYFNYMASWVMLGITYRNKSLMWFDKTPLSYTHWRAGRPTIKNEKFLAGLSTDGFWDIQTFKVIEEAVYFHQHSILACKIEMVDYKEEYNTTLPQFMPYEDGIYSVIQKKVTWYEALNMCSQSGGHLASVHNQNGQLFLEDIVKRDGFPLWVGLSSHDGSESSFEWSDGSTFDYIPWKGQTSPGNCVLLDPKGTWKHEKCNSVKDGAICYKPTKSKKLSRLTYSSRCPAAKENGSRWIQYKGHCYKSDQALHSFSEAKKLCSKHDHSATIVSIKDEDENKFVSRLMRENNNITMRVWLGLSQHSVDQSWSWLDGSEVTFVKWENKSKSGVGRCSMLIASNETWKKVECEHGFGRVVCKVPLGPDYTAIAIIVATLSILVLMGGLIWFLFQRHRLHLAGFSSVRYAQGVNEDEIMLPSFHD
UniProt O95819: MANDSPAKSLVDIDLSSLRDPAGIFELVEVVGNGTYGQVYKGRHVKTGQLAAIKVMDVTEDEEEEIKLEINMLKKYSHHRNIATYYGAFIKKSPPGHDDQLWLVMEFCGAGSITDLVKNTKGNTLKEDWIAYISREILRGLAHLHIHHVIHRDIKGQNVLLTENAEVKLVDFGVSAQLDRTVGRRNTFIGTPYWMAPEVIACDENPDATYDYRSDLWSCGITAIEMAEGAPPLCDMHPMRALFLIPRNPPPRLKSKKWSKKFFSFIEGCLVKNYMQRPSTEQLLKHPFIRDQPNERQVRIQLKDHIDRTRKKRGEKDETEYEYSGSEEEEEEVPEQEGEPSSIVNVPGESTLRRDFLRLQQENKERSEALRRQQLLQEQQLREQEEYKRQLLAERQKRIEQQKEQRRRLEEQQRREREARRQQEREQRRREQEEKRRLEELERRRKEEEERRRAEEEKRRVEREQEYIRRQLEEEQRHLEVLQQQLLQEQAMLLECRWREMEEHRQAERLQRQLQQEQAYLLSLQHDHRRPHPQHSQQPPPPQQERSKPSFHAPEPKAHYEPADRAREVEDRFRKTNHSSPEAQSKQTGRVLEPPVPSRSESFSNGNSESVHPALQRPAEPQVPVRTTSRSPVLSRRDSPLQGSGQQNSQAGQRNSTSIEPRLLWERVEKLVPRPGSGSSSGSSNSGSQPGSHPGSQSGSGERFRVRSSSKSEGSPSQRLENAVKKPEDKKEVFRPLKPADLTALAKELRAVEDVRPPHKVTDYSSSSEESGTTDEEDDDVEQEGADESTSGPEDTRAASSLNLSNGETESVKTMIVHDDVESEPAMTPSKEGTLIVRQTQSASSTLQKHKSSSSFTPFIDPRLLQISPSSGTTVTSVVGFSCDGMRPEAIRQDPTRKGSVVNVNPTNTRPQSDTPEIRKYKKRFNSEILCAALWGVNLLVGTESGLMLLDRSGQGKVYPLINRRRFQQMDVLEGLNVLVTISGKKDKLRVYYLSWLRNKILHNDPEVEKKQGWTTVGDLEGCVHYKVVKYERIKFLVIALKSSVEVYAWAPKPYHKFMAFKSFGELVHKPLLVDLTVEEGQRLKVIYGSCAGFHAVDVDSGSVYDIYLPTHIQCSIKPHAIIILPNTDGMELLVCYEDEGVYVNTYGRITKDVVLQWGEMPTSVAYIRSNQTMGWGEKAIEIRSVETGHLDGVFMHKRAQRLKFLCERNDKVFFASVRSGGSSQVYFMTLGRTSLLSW
UniProt O94822: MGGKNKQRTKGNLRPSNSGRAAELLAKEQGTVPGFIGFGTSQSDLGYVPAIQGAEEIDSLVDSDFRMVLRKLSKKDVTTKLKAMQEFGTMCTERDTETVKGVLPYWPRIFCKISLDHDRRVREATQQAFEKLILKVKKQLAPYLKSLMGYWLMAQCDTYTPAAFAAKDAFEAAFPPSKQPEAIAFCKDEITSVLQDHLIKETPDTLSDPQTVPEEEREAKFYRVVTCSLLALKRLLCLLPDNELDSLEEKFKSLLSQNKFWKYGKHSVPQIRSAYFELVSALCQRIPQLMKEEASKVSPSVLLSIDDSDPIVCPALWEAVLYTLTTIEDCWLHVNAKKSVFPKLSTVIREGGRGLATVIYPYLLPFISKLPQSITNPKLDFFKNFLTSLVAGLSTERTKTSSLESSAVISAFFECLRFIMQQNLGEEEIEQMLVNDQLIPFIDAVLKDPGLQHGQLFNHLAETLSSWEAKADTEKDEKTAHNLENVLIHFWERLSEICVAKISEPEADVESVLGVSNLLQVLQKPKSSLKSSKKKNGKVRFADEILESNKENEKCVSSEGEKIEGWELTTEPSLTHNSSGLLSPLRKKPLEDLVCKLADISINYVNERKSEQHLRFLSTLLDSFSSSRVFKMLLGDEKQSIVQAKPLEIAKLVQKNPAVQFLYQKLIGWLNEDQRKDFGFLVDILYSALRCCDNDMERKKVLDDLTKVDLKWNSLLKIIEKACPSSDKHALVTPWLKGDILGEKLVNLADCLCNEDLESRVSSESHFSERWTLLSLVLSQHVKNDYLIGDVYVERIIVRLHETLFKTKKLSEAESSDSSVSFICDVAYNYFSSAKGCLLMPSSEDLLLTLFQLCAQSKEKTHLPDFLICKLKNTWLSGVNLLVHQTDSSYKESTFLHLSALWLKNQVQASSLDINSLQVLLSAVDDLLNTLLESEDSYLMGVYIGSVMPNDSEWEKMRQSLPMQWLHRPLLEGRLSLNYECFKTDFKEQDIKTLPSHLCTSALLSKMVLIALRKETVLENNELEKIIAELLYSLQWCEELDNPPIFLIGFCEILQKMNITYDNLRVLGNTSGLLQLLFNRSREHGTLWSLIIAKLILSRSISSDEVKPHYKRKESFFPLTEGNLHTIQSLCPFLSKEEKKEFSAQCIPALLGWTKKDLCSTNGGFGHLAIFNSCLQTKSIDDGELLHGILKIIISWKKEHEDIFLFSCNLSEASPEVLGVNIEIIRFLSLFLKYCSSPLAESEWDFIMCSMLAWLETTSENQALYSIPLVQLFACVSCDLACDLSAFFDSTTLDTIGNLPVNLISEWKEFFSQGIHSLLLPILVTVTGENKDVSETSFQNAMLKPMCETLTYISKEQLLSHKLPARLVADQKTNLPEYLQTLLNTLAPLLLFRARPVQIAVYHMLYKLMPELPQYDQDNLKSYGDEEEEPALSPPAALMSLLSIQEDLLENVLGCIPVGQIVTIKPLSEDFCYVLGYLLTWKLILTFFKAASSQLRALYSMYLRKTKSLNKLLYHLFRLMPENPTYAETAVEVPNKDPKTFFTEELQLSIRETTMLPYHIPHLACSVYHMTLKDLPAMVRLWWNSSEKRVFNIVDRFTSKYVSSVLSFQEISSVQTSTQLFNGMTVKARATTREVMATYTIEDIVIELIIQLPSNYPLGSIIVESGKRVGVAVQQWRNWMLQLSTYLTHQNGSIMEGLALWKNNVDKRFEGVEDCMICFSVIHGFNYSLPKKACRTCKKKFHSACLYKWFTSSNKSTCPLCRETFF

| Target | probe-labelled cysteine peptide fold change (10 µM) | probe-labelled cysteine peptide fold change (50 µM) |
| --- | --- | --- |
| MASTL_Q96GX5_614_ESSFEESNIEDPLIVTPDCQEK (UniProt Q96GX5) | 0.11 | -0.199 |
| MAP10_Q9P2G4_273_TNSVVTCSGAGNGR (UniProt Q9P2G4) | 0.0477 | -0.188 |
| MAP4_P27816_67_KKPCSETSQIEDTPSSKPTLLANGGHGVEGSDTTGSPTEFLEEK (UniProt P27816) | -0.246 | -0.241 |
| MAP1S_Q66K74_51_SWDVDPGVCNLDEQLK (UniProt Q66K74) | -0.0131 | 0.0259 |
| LYST_Q99698_2168_GKEDAFISSCESAK (UniProt Q99698) | 0.00283 | -0.394 |
| MAN2C1_Q9NTJ4_29_FVSPLYFTDCNLR (UniProt Q9NTJ4) | 0.111 |  |
| MAP4K2_Q12851_302_ASDPHLGTPSPEDCELETYDMFPDTIHSR (UniProt Q12851) | -0.0289 | -0.161 |
| MAP3K4_Q9Y6R4_752_LFCDIAGMLLK (UniProt Q9Y6R4) | 0.073 | 0.307 |
| MAGT1_Q9H0U3_87_QCVVCK (UniProt Q9H0U3) | 0.0455 | 0.323 |
| LYPLA2_O95372_213_TYPGVMHSSCPQEMAAVK (UniProt O95372) | 0.0451 |  |
| MACF1_Q9UPN3_4325_DASSCQEQLDEFRK (UniProt Q9UPN3) | 0.0551 | -0.0169 |
| MARS_P56192_12_LFVSDGVPGCLPVLAAAGR (UniProt P56192) | 0.00736 | -0.00116 |
| MAPK9_P45984_177_TACTNFMMTPYVVTR (UniProt P45984) | -0.23 | -0.48 |
| MAP3K1_Q13233_488_NREPLICPLCR (UniProt Q13233) | 0.185 | 0.316 |
| LY75_O60449-2_1697_NQCTDHGADMISIHNEEENAFILDTLK (UniProt O60449) | 0.27 | 0.104 |
| MACF1_Q9UPN3_666_LETQYCK (UniProt Q9UPN3) | -0.0496 | -0.158 |
| MARCH3_Q86UD3_89_ICHEGSSQEDLLSPCECTGTLGTIHR (UniProt Q86UD3) | 0.253 | 0.0333 |
| MAP4K4_O95819_496_HLEVLQQQLLQEQAMLLECR (UniProt O95819) | -0.0501 | -0.213 |
| LY75_O60449_110_CEHHSLYGAAR (UniProt O60449) | 0.335 | -0.00851 |

Record cards, as listed above. Values in the order: probe-labelled cysteine peptide fold change (10 µM)	probe-labelled cysteine peptide fold change (50 µM)
MAP1S_Q66K74_51_SWDVDPGVCNLDEQLK (UniProt Q66K74) is listed as -0.0131	0.0259
MAP4K4_O95819_496_HLEVLQQQLLQEQAMLLECR (UniProt O95819) is listed as -0.0501	-0.213
MACF1_Q9UPN3_666_LETQYCK (UniProt Q9UPN3) is listed as -0.0496	-0.158

Following part

| Target | probe-labelled cysteine peptide fold change (10 µM) | probe-labelled cysteine peptide fold change (50 µM) |
| --- | --- | --- |
| LUC7L3_O95232_40_YYLCGFCPAELFTNTR (UniProt O95232) | 0.0328 | 0.116 |
| MAPRE2_Q15555_279_LREIELLCQEHGQENDDLVQR (UniProt Q15555) | 0.00852 | -0.0148 |
| MAN2C1_Q9NTJ4_584_LLLLNQFHDVVTGSCIQMVAEEAMCHYEDIR (UniProt Q9NTJ4) | 0.262 | 0.174 |
| LYAR_Q9NX58_9_VFFTCNACGESVK (UniProt Q9NX58) | -0.03 | -0.0877 |
| MACF1_Q9UPN3_2629_EGLLTNEAVLSPGMMHGIVDPENCR (UniProt Q9UPN3) | 0.077 | -0.0196 |
| MACF1_Q9UPN3_5049_HQLEIFDALGSQACSNK (UniProt Q9UPN3) | 0.154 | 0.134 |
| MAP4K1_Q92918_494_LFNGCPLR (UniProt Q92918) | 0.0601 | 0.111 |
| MAP4K4_O95819_269_FFSFIEGCLVK (UniProt O95819) | 0.123 | 0.111 |
| MBNL1_Q9NR56_185_TDRLEVCR (UniProt Q9NR56) | -0.206 | -0.177 |
| MAP7D1_Q3KQU3-4_329_DQAVPVCPR (UniProt Q3KQU3) | -0.0498 | -0.245 |
| MAP2K6_P52564_216_TIDAGCK (UniProt P52564) | 0.111 | 0.111 |
| MAP2K1_Q02750_277_ELELMFGCQVEGDAAETPPRPR (UniProt Q02750) | -0.0372 | -0.191 |
| LTN1_O94822_723_ACPSSDK (UniProt O94822) | 0.0252 | 0.0493 |
| MAPK7_Q13164_194_DLKPSNLLVNENCELK (UniProt Q13164) | -0.246 | -0.257 |
| MAP4_P27816-4_243_LSFCEDQNAQDR (UniProt P27816) | 0.0716 | 0.0752 |
| LTN1_O94822_91_AMQEFGTMCTER (UniProt O94822) | -0.147 | -0.3 |
| LYST_Q99698_3677_SPVTAVSASETSGDIATVCDSAGGGSDLR (UniProt Q99698) | 0.304 | -0.00375 |
| MATR3_P43243_296_GYPHLCSICDLPVHSNK (UniProt P43243) | -0.0503 | 0.00253 |
| LYST_Q99698_2965_CYLTIPNK (UniProt Q99698) | -0.0683 | -0.163 |

— the supplement of paper PMC12067093, “Discovery and optimisation of a covalent ligand for TRIM25 and its application to targeted protein ubiquitination” (Chemical Science, 2025)
